The target of this test is T1, biotinylated BC2 tag peptide QGQSGQPDRKAAVSHWQ
T1 construct: Synthesized at ELIM Biopharmaceuticals; loaded on SSA biosensor tips at 100 nM; also called free BC2T peptide; the peptide
T1 peptide: Biotin-QGQSGQPDRKAAVSHWQ
Briefly: BLI (ForteBio Octet), biotinylated peptide on SSA biosensor tips, 100 nM Nb. Here is the method: Binding of the unmasked nanobody and single-anchored BC2T-Nb to free BC2T peptide was assessed by BLI using the ForteBio Octet device. While BLI is generally used to calculate association and dissociation kinetics of binding interactions, it was used herein to detect binding Peptide corresponding to the following sequence: […] (SEQ ID NO: 567) was synthesized at ELIM Biopharmaceuticals with a biotin at the N-terminus. The peptide was loaded on SSA biosensor tips (Pall/ForteBio Cat #18-5117) at 100 nM in Binding Buffer (BB: 1×PBS, pH 7.2, 5% glycerol, 0.1% Tween-20, 2% BSA) for 10 minutes. Baseline incubation in BB for 1 min before and after this capture step were used to confirm protein capture. The loaded tips were then incubated in 100 nM Nb in BB for 6 minutes followed by incubation in BB for 6 minutes. Changes in interference distance (nanometers) at the sensor tip are plotted against time to follow the binding/dissociation of soluble proteins from the immobilized ligand on the tip (FIG. 7).

No constants are given. Whether binding was seen depends on the method and setting. Some results given as binding are weak or reduced against the parent protein; the word gives no strength. Where a sequence is shown, tags or fusion partners need not be part of it.

B1: product of ProC653 and MMP14 (ProC653+MMP14), activated ProC653 (VHH, not shown: small tags and cut ends)
VHH: QVQLVESGGGLVQPGGSLTLSCTASGFTLDHYDIGWFRQAPGKEREGVSCINNSDDDTYYADSVKGRFTIFMNNAKDTVYLQMNSLKPEDTAIYYCAEARGCKRGRYEYDFWGQGTQVTVSS
As for B1, the binding entry is “binds”.

B2: product of ProC654 and MMP9 (ProC654+MMP9), activated ProC654 (VHH, not shown: small tags and cut ends)
VHH: QVQLVESGGGLVQPGGSLTLSCTASGFTLDHYDIGWFRQAPGKEREGVSCINNSDDDTYYADSVKGRFTIFMNNAKDTVYLQMNSLKPEDTAIYYCAEARGCKRGRYEYDFWGQGTQVTVSS
As for B2, the binding result is recorded as “binds”.

Values taken from patent US20250333487A1 (CYTOMX THERAPEUTICS, published 2025).
